In the supplement of paper PMC10849652:
The other results are listed elsewhere or left out.

Chains of the proteins cited; added tags and fusions are not shown. Lines headed by an entry give the natural chain unless they say otherwise; changes in a name come on top.
UniProt Q8IW45: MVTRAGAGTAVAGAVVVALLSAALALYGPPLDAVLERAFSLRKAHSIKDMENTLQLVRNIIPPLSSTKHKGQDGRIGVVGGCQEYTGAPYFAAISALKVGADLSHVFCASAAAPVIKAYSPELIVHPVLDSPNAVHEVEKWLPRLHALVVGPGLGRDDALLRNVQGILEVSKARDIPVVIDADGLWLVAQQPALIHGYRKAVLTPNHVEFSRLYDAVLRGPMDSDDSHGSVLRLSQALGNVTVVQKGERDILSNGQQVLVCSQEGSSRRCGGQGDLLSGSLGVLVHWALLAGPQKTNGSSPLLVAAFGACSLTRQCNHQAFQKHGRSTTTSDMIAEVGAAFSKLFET
UniProt O43639, whole entry, looked up: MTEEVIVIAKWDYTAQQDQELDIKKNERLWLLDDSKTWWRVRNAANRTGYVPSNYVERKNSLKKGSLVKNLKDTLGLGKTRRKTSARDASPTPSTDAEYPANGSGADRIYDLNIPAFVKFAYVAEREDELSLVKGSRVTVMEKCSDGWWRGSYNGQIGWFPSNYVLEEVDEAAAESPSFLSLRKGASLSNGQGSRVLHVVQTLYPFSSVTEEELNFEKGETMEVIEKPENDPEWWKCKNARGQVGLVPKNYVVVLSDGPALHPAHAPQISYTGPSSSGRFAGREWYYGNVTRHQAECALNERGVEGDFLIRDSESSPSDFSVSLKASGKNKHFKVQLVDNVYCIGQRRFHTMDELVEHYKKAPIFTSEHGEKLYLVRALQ
UniProt Q4G0N4: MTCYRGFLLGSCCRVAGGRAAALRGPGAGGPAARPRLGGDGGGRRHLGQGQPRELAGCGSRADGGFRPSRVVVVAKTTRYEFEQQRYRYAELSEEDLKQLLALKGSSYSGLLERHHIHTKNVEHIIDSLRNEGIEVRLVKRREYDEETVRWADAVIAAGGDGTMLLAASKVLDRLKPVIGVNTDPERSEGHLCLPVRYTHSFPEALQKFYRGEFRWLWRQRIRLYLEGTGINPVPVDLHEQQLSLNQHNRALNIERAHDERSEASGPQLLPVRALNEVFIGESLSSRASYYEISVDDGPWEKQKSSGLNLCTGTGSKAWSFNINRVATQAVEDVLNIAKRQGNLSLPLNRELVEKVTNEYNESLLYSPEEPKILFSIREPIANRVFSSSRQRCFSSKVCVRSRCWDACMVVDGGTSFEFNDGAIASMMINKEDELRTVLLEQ
UniProt Q6IA69: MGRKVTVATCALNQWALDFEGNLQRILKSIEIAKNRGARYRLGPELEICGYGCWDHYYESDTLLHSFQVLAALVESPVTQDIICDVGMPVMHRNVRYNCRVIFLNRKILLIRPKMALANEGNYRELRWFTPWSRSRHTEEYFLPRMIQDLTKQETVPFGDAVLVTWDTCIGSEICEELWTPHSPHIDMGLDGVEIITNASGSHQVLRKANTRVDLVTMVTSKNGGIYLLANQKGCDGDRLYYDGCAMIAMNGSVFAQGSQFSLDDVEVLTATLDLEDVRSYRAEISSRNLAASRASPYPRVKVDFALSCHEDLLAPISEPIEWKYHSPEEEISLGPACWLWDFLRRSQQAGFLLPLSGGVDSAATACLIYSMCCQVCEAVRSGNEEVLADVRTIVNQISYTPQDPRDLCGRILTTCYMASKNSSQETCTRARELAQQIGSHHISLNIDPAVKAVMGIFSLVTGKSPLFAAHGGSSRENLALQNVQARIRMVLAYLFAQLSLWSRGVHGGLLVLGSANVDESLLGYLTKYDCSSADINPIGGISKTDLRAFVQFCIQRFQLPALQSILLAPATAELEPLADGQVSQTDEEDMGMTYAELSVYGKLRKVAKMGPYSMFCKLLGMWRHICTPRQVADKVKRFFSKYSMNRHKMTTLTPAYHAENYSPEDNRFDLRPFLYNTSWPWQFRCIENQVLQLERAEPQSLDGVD
UniProt Q86XI2: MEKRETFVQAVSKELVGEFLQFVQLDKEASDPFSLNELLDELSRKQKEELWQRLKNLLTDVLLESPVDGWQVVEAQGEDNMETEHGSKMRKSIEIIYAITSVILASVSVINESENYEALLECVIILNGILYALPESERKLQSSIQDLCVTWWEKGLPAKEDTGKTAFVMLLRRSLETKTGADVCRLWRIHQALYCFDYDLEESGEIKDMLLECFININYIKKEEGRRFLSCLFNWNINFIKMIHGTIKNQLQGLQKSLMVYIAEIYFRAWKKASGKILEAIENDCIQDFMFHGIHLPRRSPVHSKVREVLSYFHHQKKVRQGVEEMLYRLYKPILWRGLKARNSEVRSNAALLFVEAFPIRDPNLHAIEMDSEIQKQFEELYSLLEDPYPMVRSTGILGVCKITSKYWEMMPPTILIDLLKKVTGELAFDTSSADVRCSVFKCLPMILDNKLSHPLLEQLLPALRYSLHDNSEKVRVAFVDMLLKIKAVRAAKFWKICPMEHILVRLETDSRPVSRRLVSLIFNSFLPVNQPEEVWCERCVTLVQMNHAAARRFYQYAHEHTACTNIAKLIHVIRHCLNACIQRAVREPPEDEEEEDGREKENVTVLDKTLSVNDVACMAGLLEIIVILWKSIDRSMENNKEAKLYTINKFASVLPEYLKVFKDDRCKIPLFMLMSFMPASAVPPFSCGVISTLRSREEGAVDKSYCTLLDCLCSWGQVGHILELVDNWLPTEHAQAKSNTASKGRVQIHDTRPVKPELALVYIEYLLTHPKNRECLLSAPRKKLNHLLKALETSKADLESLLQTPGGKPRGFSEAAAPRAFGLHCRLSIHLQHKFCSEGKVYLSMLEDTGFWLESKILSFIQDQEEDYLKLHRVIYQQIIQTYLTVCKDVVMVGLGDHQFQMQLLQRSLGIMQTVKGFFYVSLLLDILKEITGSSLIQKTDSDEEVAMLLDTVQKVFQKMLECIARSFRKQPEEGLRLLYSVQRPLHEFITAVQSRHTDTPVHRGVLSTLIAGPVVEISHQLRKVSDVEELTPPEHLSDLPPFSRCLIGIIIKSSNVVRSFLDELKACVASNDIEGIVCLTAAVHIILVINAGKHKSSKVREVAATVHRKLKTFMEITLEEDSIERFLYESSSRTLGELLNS
UniProt Q9NXR1: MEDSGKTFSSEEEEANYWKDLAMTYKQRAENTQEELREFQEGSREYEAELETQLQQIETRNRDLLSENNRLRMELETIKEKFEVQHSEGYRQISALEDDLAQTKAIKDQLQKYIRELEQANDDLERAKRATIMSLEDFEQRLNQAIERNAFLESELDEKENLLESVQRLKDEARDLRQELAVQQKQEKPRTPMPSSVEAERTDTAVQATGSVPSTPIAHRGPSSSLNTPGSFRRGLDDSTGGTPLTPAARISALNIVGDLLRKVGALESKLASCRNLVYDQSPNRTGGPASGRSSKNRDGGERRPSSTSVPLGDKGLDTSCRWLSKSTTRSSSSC
UniProt Q8NC96: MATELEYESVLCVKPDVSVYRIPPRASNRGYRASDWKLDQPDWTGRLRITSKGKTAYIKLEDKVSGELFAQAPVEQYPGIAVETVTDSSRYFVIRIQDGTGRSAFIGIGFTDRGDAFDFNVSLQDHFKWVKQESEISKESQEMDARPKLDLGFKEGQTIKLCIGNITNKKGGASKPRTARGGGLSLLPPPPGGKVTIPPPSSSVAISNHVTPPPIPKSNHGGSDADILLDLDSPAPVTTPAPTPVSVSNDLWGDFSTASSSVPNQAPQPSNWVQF
UniProt Q09161: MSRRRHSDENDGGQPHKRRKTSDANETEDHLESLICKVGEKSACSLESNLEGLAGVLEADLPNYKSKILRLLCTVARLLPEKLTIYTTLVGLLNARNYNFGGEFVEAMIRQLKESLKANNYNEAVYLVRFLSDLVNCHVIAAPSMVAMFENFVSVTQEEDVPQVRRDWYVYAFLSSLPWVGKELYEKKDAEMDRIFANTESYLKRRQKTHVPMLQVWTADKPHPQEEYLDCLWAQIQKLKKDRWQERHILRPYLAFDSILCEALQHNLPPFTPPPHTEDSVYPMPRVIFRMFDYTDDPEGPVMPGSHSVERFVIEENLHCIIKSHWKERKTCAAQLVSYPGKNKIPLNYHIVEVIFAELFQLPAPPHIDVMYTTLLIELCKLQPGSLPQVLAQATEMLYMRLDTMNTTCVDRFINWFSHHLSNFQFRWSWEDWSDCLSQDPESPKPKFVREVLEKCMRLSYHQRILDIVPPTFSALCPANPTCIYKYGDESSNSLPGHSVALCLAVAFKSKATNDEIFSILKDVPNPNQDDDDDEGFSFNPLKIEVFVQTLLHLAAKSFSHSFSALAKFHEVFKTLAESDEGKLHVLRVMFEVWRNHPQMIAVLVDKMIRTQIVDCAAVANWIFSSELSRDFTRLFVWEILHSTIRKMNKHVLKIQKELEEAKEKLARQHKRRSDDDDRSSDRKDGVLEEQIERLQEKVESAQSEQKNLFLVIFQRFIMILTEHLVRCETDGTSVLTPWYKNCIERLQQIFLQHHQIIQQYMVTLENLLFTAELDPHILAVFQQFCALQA
UniProt Q14CX7, whole entry, looked up: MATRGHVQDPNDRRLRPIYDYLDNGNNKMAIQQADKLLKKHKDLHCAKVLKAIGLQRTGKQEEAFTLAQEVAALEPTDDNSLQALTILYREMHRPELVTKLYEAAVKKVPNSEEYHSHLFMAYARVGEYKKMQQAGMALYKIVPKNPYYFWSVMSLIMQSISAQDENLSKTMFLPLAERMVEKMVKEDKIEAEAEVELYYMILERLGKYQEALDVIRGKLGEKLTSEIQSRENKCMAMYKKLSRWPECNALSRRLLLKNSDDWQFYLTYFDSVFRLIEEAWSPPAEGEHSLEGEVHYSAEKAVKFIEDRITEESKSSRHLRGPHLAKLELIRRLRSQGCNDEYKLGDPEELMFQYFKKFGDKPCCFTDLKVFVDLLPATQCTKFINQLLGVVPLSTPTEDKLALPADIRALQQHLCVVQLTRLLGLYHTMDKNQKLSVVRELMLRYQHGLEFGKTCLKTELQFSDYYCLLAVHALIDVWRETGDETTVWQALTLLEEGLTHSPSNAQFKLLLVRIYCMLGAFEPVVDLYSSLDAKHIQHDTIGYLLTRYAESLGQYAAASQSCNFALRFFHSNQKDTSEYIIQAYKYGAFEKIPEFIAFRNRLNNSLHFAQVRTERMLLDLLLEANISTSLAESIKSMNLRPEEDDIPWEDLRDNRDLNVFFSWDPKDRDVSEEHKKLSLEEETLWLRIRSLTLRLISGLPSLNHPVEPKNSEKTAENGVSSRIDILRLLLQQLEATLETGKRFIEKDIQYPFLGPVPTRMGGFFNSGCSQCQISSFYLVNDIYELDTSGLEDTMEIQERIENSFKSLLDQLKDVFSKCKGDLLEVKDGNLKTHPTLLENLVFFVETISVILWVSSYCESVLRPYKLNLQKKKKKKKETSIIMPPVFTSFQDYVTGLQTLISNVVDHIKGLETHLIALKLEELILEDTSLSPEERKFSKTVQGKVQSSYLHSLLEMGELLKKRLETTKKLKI
UniProt O43674, whole entry, looked up: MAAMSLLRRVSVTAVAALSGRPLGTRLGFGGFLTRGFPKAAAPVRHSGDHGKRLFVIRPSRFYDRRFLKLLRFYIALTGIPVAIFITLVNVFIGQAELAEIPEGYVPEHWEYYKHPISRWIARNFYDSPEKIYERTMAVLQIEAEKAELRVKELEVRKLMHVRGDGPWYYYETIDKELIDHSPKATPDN
UniProt O95299, whole entry, looked up: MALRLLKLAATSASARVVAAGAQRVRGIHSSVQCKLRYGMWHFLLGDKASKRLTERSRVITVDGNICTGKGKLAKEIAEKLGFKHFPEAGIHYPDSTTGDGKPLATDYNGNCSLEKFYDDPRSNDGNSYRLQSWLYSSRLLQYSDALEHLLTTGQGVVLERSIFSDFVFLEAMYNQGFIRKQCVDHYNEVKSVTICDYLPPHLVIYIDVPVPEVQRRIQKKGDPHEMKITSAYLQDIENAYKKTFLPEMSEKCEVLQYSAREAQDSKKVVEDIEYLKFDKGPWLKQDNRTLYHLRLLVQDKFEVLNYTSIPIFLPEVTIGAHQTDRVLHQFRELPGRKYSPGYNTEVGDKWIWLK
UniProt O43676, whole entry, looked up: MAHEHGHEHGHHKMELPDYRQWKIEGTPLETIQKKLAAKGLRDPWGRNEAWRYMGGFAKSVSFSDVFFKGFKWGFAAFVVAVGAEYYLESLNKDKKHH
UniProt O95298, whole entry, looked up: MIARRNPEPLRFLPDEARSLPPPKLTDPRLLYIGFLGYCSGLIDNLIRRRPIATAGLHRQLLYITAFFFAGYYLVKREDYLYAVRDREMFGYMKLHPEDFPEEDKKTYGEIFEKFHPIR
UniProt Q99733: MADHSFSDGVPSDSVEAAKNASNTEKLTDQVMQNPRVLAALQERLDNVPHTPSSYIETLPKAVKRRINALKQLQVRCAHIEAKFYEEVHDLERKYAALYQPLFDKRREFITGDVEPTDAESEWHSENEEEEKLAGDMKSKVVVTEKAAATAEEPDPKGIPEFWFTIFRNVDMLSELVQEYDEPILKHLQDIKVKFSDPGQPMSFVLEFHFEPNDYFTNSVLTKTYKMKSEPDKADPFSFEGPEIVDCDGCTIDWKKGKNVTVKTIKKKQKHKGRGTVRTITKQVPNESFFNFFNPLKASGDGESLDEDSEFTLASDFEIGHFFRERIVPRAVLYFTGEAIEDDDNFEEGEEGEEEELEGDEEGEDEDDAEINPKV

Assays:
Assay in all cases: log2 fold change, soluble protein after heating vs DMSO (PISA); higher = thermal stabilisation; K562 cells, 10 uM, 30 min; active = over 0.2 and 3.5 SD of the protein, either way, in both replicates (recomputed)
[1] = compound: CS(=O)(=O)c1ccc(-c2cnc(N)c(C(=O)Nc3ccccc3)n2)cc1
Method in brief: (§1)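 Soluble protein was defined as the supernatant after 21,000xg for 90 min. It came from K562 cells at 2×10^6 cells/mL given 10 μM compound for 30 min, heated in aliquots for 3 min across 48°C-58°C, pooled, and extracted in PBS with 0.5% NP-40 at 4°C, and was quantified by TMTpro 16plex LC-MS/MS with equalised channel sums. Thermal stability against control samples, from duplicates, is reported as log2 fold change.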

crizotinib = compound: C[C@@H](Oc1cc(-c2cnn(C3CCNCC3)c2)cnc1N)c1c(Cl)ccc(F)c1Cl [crizotinib]
Method in brief: as §1

[2] = compound: C[C@@H]1COCCN1C2=NC(=NC(=C2)C3(CC3)S(=O)(=O)C)C4=C5C=CNC5=CC=C4
Method in brief: as §1

[3] = compound: C[C@H](C1=CC=C(C=C1)C(=O)NC2=C3C=CNC3=NC=C2)N
Method in brief: as §1

duvelisib = compound: C[C@H](Nc1ncnc2nc[nH]c12)c1cc2cccc(Cl)c2c(=O)n1-c1ccccc1 [duvelisib]
Method in brief: as §1

gandotinib = compound: Cc1cc(Nc2cc(CN3CCOCC3)c3nc(C)c(Cc4ccc(Cl)cc4F)n3n2)n[nH]1 [gandotinib]
Method in brief: as §1

tozasertib = compound: Cc1cc(Nc2cc(N3CCN(C)CC3)nc(Sc3ccc(NC(=O)C4CC4)cc3)n2)n[nH]1 [tozasertib]
Method in brief: as §1

[4] = compound: Cc1cc(SCc2sc(-c3ccc(C(F)(F)F)cc3)nc2C)ccc1OCC(=O)O
Method in brief: as §1

doramapimod = compound: Cc1ccc(-n2nc(C(C)(C)C)cc2NC(=O)Nc2ccc(OCCN3CCOCC3)c3ccccc23)cc1 [doramapimod]
Method in brief: as §1

ispinesib = compound: Cc1ccc(C(=O)N(CCCN)[C@@H](c2nc3cc(Cl)ccc3c(=O)n2Cc2ccccc2)C(C)C)cc1 [ispinesib]
Method in brief: as §1

Measured: log2 fold change

NCBP2 (UniProt P52298)
inactive: [1] 0.031 | crizotinib 0.169 | [2] 0.038 | [3] -0.019 | duvelisib 0.04 | gandotinib -0.013 | tozasertib -0.019 | [4] 0.052 | doramapimod -0.028 | ispinesib 0.005

NAXD (UniProt Q8IW45)
inactive: [1] -0.016 | crizotinib 0.064 | [2] -0.041 | [3] -0.069 | duvelisib -0.012 | gandotinib 0.122 | tozasertib 0 | [4] -0.029 | doramapimod -0.002 | ispinesib 0.026

NDUFAF3 (UniProt Q9BU61)
inactive: [1] 0.041 | crizotinib -0.006 | [2] 0.178 | [3] -0.108 | duvelisib 0.137 | gandotinib -0.021 | tozasertib -0.006 | [4] -0.007 | doramapimod 0.013 | ispinesib 0.01

NCK2 (UniProt O43639)
inactive: [1] 0.043 | crizotinib -0.12 | [2] 0.08 | [3] 0.205 | duvelisib 0.062 | gandotinib -0.09 | tozasertib -0.037 | [4] 0.197 | doramapimod -0.021 | ispinesib -0.208

NADK2 (UniProt Q4G0N4)
inactive: [1] 0.013 | crizotinib 0.069 | [2] 0.03 | [3] 0.013 | duvelisib 0.037 | gandotinib -0.034 | tozasertib -0.035 | [4] -0.04 | doramapimod -0.024 | ispinesib 0.013

NAT10 (UniProt Q9H0A0)
inactive: [1] 0.022 | crizotinib -0.129 | [2] -0.19 | [3] 0.559 | duvelisib -0.147 | gandotinib 0.019 | tozasertib 0.088 | [4] 0.123 | doramapimod 0.105 | ispinesib -0.141

NEFH (UniProt P12036)
inactive: [1] 0.021 | crizotinib 0.202 | [2] -0.279 | [3] 0.161 | duvelisib -0.213 | gandotinib 0.156 | tozasertib 0.334 | [4] 0.085 | doramapimod 0.106 | ispinesib -0.141

NADSYN1 (UniProt Q6IA69)
inactive: [1] 0.037 | crizotinib 0.057 | [2] 0.156 | [3] -0.126 | duvelisib 0.004 | gandotinib 0.038 | tozasertib -0.023 | [4] -0.036 | doramapimod 0.004 | ispinesib 0.119

NCAPG2 isoform 2 (UniProt Q86XI2)
inactive: [1] -0.004 | crizotinib 0.203 | [2] -0.17 | [3] 0.285 | duvelisib -0.07 | gandotinib 0.147 | tozasertib 0.113 | [4] 0.265 | doramapimod -0.084 | ispinesib -0.183

NDE1 isoform 1 (UniProt Q9NXR1)
inactive: [1] -0.027 | crizotinib 0.026 | [2] 0.026 | [3] -0.041 | duvelisib 0.026 | gandotinib 0.022 | tozasertib -0.041 | [4] -0.003 | doramapimod 0.014 | ispinesib -0.009

NDUFAF1 (UniProt Q9Y375)
inactive: [1] 0.011 | crizotinib -0.032 | [2] 0.027 | [3] -0.043 | duvelisib 0.072 | gandotinib -0.004 | tozasertib -0.053 | [4] -0.067 | doramapimod 0 | ispinesib -0.023

NECAP1 (UniProt Q8NC96)
inactive: [1] 0.04 | crizotinib -0.005 | [2] 0.114 | [3] -0.022 | duvelisib 0.069 | gandotinib 0.007 | tozasertib 0.061 | [4] 0.073 | doramapimod -0.027 | ispinesib -0.039

NAA30 (UniProt Q147X3)
inactive: [1] -0.014 | crizotinib 0.006 | [2] 0.025 | [3] 0.005 | duvelisib 0.007 | gandotinib -0.108 | tozasertib -0.095 | [4] 0.024 | doramapimod 0.013 | ispinesib -0.054

MYO9B (UniProt Q13459)
inactive: [1] 0.078 | crizotinib -0.078 | [2] -0.039 | [3] 0.228 | duvelisib -0.037 | gandotinib 0.05 | tozasertib 0.013 | [4] 0.042 | doramapimod 0.127 | ispinesib -0.135

NCBP1 (UniProt Q09161)
inactive: [1] 0.009 | crizotinib 0.004 | [2] 0.119 | [3] -0.017 | duvelisib 0.03 | gandotinib -0.01 | tozasertib 0.006 | [4] 0.009 | doramapimod -0.028 | ispinesib 0.003

NAA25 (UniProt Q14CX7)
inactive: [1] 0.062 | crizotinib -0.124 | [2] 0.111 | [3] -0.052 | duvelisib 0.005 | gandotinib -0.01 | tozasertib -0.011 | [4] 0.061 | doramapimod 0.015 | ispinesib 0.08

NDUFB5 (UniProt O43674)
inactive: [1] -0.01 | crizotinib -0.053 | [2] 0.028 | [3] -0.072 | duvelisib -0.024 | gandotinib 0.02 | tozasertib 0.01 | [4] -0.029 | doramapimod 0.012 | ispinesib -0.146

NDUFA10 (UniProt O95299)
inactive: [1] 0.022 | crizotinib -0.047 | [2] 0.062 | [3] 0.035 | duvelisib 0.024 | gandotinib -0.134 | tozasertib -0.043 | [4] 0.022 | doramapimod -0.045 | ispinesib -0.122

NCALD (UniProt P61601)
inactive: [1] -0.008 | crizotinib 0.021 | [2] 0.072 | [3] 0 | duvelisib 0.04 | gandotinib -0.031 | tozasertib 0.03 | [4] -0.021 | doramapimod 0.038 | ispinesib -0.024

NDUFA5 (UniProt Q16718)
inactive: [1] 0.03 | crizotinib 0.04 | [2] 0.071 | [3] -0.083 | duvelisib 0.145 | gandotinib 0.043 | tozasertib 0.008 | [4] -0.008 | doramapimod 0.036 | ispinesib 0.066

NDUFAF5 (UniProt Q5TEU4)
inactive: [1] -0.018 | crizotinib 0.05 | [2] 0.004 | [3] -0.057 | duvelisib 0.045 | gandotinib -0.11 | tozasertib -0.015 | [4] 0.016 | doramapimod 0 | ispinesib 0.129

NDUFB3 (UniProt O43676)
inactive: [1] 0.019 | crizotinib -0.044 | [2] 0 | [3] -0.022 | duvelisib 0.04 | gandotinib -0.054 | tozasertib -0.033 | [4] 0.018 | doramapimod -0.002 | ispinesib -0.005

NCSTN (UniProt Q92542)
inactive: [1] -0.02 | crizotinib -0.002 | [2] 0.143 | [3] 0.055 | duvelisib 0.01 | gandotinib -0.146 | tozasertib -0.013 | [4] -0.049 | doramapimod 0.029 | ispinesib 0.014

NDUFAF2 (UniProt Q8N183)
inactive: [1] 0.024 | crizotinib -0.037 | [2] 0.023 | [3] -0.05 | duvelisib 0.034 | gandotinib 0.015 | tozasertib -0.018 | [4] -0.045 | doramapimod -0.005 | ispinesib -0.027

NARS1 (UniProt O43776)
inactive: [1] -0.002 | crizotinib 0.032 | [2] -0.018 | [3] 0.028 | duvelisib 0.002 | gandotinib -0.022 | tozasertib -0.03 | [4] -0.036 | doramapimod 0.007 | ispinesib 0.004

NAPA (UniProt P54920)
inactive: [1] -0.033 | crizotinib 0.007 | [2] 0.025 | [3] -0.056 | duvelisib 0.046 | gandotinib -0.055 | tozasertib 0.031 | [4] 0.003 | doramapimod -0.015 | ispinesib 0.137

NDUFS2 (UniProt O75306)
inactive: [1] -0.054 | crizotinib -0.075 | [2] 0.085 | [3] -0.088 | duvelisib 0.026 | gandotinib -0.108 | tozasertib 0.002 | [4] 0.012 | doramapimod 0.007 | ispinesib -0.04

NDUFC2 (UniProt O95298)
inactive: [1] 0.005 | crizotinib -0.013 | [2] 0.103 | [3] -0.018 | duvelisib 0.033 | gandotinib 0.081 | tozasertib -0.025 | [4] -0.008 | doramapimod 0.098 | ispinesib -0.112

NCLN (UniProt Q969V3)
inactive: [1] 0.009 | crizotinib -0.013 | [2] 0.002 | [3] 0.064 | duvelisib -0.013 | gandotinib -0.013 | tozasertib 0.035 | [4] 0.016 | doramapimod 0.023 | ispinesib -0.09

NAP1L4 isoform 2 (UniProt Q99733)
inactive: [1] 0.022 | crizotinib 0.046 | [2] 0.009 | [3] -0.038 | duvelisib 0.008 | gandotinib -0.073 | tozasertib 0.01 | [4] -0.001 | doramapimod -0.008 | ispinesib 0.091
